Measured values from the supplement of paper PMC12823440, “Inhibitors supercharge kinase turnover through native proteolytic circuits” (Nature, 2025).
Structures can show the parent of a compound that is named as a salt. Some of the results follow. Hit calls seldom repeat between salt and free forms of one compound.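 In K562 cells expressing nanoluciferase-fused kinases, luminescence was recorded at 4 h intervals between 2 and 18 h, normalized as percent of control with DMSO at 100% and a positive control at 0%. A significant (2 sigma) signal drop marks a time point as decreased. The authors' rule for a hit is not shown and takes in more than the number of time points.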

The chains behind the UniProt entries cited, without tags or fusion partners. Where a name states a change or a piece, a line headed by the entry shows the natural chain unless it says otherwise.
UniProt P10398: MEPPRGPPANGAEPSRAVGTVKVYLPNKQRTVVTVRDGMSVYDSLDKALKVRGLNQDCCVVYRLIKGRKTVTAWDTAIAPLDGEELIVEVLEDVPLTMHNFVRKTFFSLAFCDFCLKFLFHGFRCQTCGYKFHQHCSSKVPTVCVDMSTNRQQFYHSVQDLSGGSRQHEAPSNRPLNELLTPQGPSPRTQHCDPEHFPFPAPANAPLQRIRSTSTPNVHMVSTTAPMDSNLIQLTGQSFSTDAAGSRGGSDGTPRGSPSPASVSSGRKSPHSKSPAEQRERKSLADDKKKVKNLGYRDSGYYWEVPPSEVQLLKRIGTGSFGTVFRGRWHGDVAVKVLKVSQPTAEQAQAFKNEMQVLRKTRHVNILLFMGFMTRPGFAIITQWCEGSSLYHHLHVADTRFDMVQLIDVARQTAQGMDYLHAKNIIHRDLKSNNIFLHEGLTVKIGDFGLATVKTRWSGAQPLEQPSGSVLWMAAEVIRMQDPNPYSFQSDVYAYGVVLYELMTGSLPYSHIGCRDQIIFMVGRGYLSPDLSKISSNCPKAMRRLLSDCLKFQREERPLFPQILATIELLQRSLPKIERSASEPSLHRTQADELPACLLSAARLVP

biological target: ARAF (UniProt P10398); assay: number of time points (of 5) at which kinase-Nluc abundance scored as decreased, DMSO-normalised (count); higher = more persistent destabilization; settings: K562; 2-18 h

Compound	number of time points
Cc1cc2cc(Nc3ccnc(Nc4ccc5[nH]c(C)cc5c4)n3)ccc2[nH]1 (2.5 µM)	0
Cc1cc(Nc2cc(Cl)nc(Oc3ccc([N+](=O)[O-])cc3)n2)n[nH]1 [Autophinib] (2.5 µM)	0
Fc1ccc(-c2nc(-c3ccccc3F)[nH]c2-c2ccncc2)cc1 (2.5 µM)	0
OC(COc1ccc(C(F)(F)F)cc1)CN(Cc1ccccc1)Cc1ccccc1 (configuration not stated) (2.5 µM)	0
COc1ccc2[nH]cc(/C=C3\C(=O)Nc4ccc(NC(=O)CCN5CCCCC5)cc43)c2c1 (2.5 µM)	0
CS(=O)(=O)c1ccc(-c2noc(C(F)(F)F)c2-c2ccccc2)cc1 (10 µM)	0
COCCO[C@@H]1[C@H](O)[C@@H](CO)O[C@H]1n1cnc2c(=O)[nH]c(N)nc21 [2′-O-(2-Methoxyethyl)guanosine] (10 µM)	0
Cn1cnc(-c2cc3nccc(Oc4ccc(NC(=S)NC(=O)Cc5ccccc5)cc4F)c3s2)c1 [MGCD-265 analog] (10 µM)	1
Cc1noc(C)c1-c1ccc(-c2cc(C(N)=O)c(NC(N)=O)s2)c(O[C@H]2CCNC2)c1 (10 µM)	0
Cc1c(CN2CCN(S(C)(=O)=O)CC2)sc2c(N3CCOCC3)nc(-c3cnc(N)nc3)nc12 (2.5 µM)	0
CC(C)CN(CC(=O)N1CCN(CC(OCc2ccc3ccccc3c2)c2ccc(Cl)cc2Cl)CC1)CC(C)C (configuration not stated) [LYN-1604 (dihydrochloride)] (2.5 µM)	0
CC/C=C\C/C=C\C/C=C\CCCCCCCC(=O)O [α-Linolenic acid] (10 µM)	0

Single values from the entries so far:
Under number of time points, CS(=O)(=O)c1ccc(-c2noc(C(F)(F)F)c2-c2ccccc2)cc1 (10 µM) shows 0
Under number of time points, OC(COc1ccc(C(F)(F)F)cc1)CN(Cc1ccccc1)Cc1ccccc1 (configuration not stated) (2.5 µM) shows 0
